# Source: publication PMC4823841
# These are yes or no findings as the source states them, for the method shown.
# B1: recombinant ovine angiotensinogen expressed in E. coli (protein, UniProt P20757 25-476)
# chain: MDRVYIHPFHLLVHSKSNCDQLEKPSVETPADPTLTPVPIQTKSSPVDEEALWEQLVRATEKLEAEDRLRASEVGLLLNFMGFHVYKTLSETWSVASGLVFSPVALFSTLTSFYTGALDPTASRLQAFLGVPGEGQGCTSRLDGRKVLSSLQTIQGLLVAPGGASSQARLLLSTVVGLFTAPGLHLKQPFVQGLSSFAPITLPRSLDLSTDPNLAAEKINRFMHSATGWNMGRPLAAASPDSTLLFNAYVHFQGKMKGFSLLPGLTEFWVDNTTSVPVPMLSGSGTFHYWSDNQNHLSMTRVPLSANGYLLLIQPHHTLDLRKVEALIFQHNFLTRMKNLSPRAIHLTVPQLTLKASYDLQDLLAQAKLPTLLGAEANLGKISDANLRVGKVLNSVLFELKADGEQAPESVPQPAGPEALEVTLNSPFLLAVLERSSGALHFLGRVSRPLSAE
# What was measured:
# [1] = molecular target: recombinant ovine angiotensinogen expressed in E. coli (ovine (sheep)) (UniProt P20757); assay: SEC; analytical size-exclusion gel filtration, Superdex 200 10/300 GL, 2 mM HEPES, 0.20 M KCl, pH 8.0, 0.3 mL/min, calibrated with the Gel Filtration Standard; both purified
# [2] = molecular target: recombinant ovine angiotensinogen expressed in E. coli (ovine (sheep)) (UniProt P20757); assay: dynamic light scattering; 25 °C, 0.5 mg/mL oANG, 20 mM sodium phosphate pH 7.4, 20 mM (oANG_(Ecoli)) or 33 mM (oANGCHO) KCl; both purified
binder,measurement,setting,value
B1,binding,[1],no binding
same,binding,[2],no binding (tested: 0.5 mg/mL)
